Article PMC10163288
Some of the results follow.

B1: il10ra_site1_normal_mot_HHH_b2_02337_000000026_0001_38_52_H_._HHH_b2_03301_0001_0000100010_0000001_0 (protein)
chain: SSSSDEEERVKELLEEAQELIEEGNPEEAAEVLQEALRLILELGDEELLRELWELVQELYSSSSS
B2: il10ra_site1_sap_21_mot_HHH_b1_06625_000000108_0001_1_15_H_._HHH_b1_00925_0001_0000300005_0000001_0_0001_af2pred_0001 (protein)
chain: SSSSDEEEEELKELLKRLEQLVEEGNREEFIRLYRRVAKLAAELNDEEVLRLLVELLRKADSSSS
B3: il10ra_site1_normal_mot_HHH_b1_07380_000000129_0001_1_20_H_._HHH_b2_04624_0001_0000100005_0000001_0 (protein)
chain: SSSSSDAAEELYRLSREAAELLAEGNPEEAERVAQEAFELAEEAGDEVLLFAIELLLRDISSSSS
B4: il10ra_site1_normal_mot_HHH_b1_06667_af2_000000019_0001_42_58_H_._HHH_b2_04021_af2_0001_0000400012_0000001_0 (protein)
chain: SSSSSDEHYRRNLRRFLKLLKEQGDEEALRSLLRAAKEVAKALNDEELEEEVEEILRELKSSSSS
B5: il10ra_site1_normal_mot_HHH_b2_01649_af2_000000191_0001_40_56_H_._HHH_b1_07449_0001_0000100004_0000002_0 (protein)
chain: SSSSDSEVAYRFHKELAEEALKLGNREEAEKILRAAIEALRRLNDEELVEELEELLEEVRGSSSS
B6: il10ra_site1_normal_mot_HHH_b1_04708_000000014_0001_1_19_H_._HHH_b1_05863_0001_0000200030_0000001_1 (protein)
chain: SSSSTLEEAVRFTLEVIRQRIELGDEEHARFIIEVLERAIREAGDEELLEELERLLEELNSSSSS
B7: il10ra_site1_sap_17_mot_HHH_b2_08265_af2_000000206_0001_22_38_H_._HHH_b2_05578_af2_0001_0000200017_0000001_0_0001 (protein)
chain: SSSSDVEEEAKELTREAEELAKELGNRAVLFLLRQLLEAIELSGDPKALEMLESLFKTLEGSSSS
B8: il10ra_site1_sap_14_mot_HHH_b2_07442_000000239_0001_40_54_H_._HHH_b1_06878_0001_0000300020_0000001_0_0001 (protein)
chain: SSSSDESRELFELSEEAARLLTEGNPEEAEEVLEEAEKIAKERGSRVILKALEHLLRAIRSSSSS
B9: il10ra_site1_normal_mot_HHH_b1_04100_af2_000000180_0001_1_19_H_._HHH_b2_02890_0002_0000300020_0000002_0_af2pred_0001 (protein)
chain: SSSSSVAEKAVRILLKAARQIEDPEAVKLTLRDAKAAARANNNEELEREIEEVERELKELLSSSS
B10: il10ra_site1_normal_mot_HHH_b1_02997_000000220_0001_39_52_H_._HHH_b1_06167_0001_0000500039_0000002_0_af2pred_0001 (protein)
chain: SSSSSEEAHRLFELSRRAIELLADGNPEEAEEVVEEALELARELGNEVLRVVLEFLLEQIRSSSS
B11: il10ra_site1_sap_17_mot_HHH_b2_03425_000000200_0001_22_39_H_._HHH_b2_02312_af2_0001_0000700072_0000001_1_0001 (protein)
chain: SSSSSDESFEAVRKAIEEALELWRRGNPEEAREVLEEAIEFVRERGDWAAKFALKHLAELLSSSS
B12: il10ra_site1_sap_20_mot_HHH_b1_01886_000000262_0001_1_18_H_._HHH_b1_05552_af2_0001_0000500031_0000001_0_0001_af2pred_0001 (protein)
chain: SSSSSDEEEVRKRAEELFERAEKVSPEEVKRILHEIVELAKEYEDLEVARLASELLELSSSSSSS
B13: il10ra_site1_sap_21_mot_HHH_b2_04050_000000291_0001_1_20_H_._HHH_b2_06391_af2_0001_0000100001_0000001_1_0001 (protein)
chain: SSSSSDEEYEERVEELLEEAEKIPDPRERSHVLLRAVQLAFHGQDPELVRAVWRVFEKLFSSSSS
B14: il10ra_site1_normal_mot_HHH_b1_05357_000000034_0001_23_39_H_._HHH_b2_03756_0001_0000100003_0000001_0 (protein)
chain: SSSSDEEEEVEELLRRAEELAKEGDRRRVSHLLIRAYAVASRLGDPELERLVREVARRLLSSSSS
B15: il10ra_site1_sap_16_mot_HHH_b2_05343_000000235_0001_19_35_H_._b5d408fb59e05adbbadd706aaa09cbfb_0001_af2_0001_0000900021_0000001_0_0001 (protein)
chain: SSSSTDAQEVFELIREAVELLTEGDPEEAEEVLKKARELAEELGDRLLEWQIEFLERLIRSSSSS
B16: il10ra_site1_sap_21_mot_HHH_b1_05254_000000006_0001_1_19_H_._HHH_b1_07705_0001_0000100013_0000001_0_0001 (protein)
chain: SSSSSSEEEVEELIKEARELLENGDPERAAKVLQRAIRLAFELGDAELLQRIWELLARQRSSSSS
B17: il10ra_site1_normal_mot_HHH_b1_04940_000000219_0001_1_18_H_._HHH_b2_07435_0001_0000400043_0000001_1_af2pred_0001 (protein)
chain: SSSSDEELLKKTIEVAKRLLEHGDEEAARRLLRAALDIAERLNDEEVVRELRELLEEIENSSSSS
B18: il10ra_site1_sap_20_mot_HHH_b2_06199_000000213_0001_1_17_H_._70c42a40e9bcf7739a80f3883b181487_0001_1_0001_0000200014_0000002_0_0001 (protein)
chain: SSSSDEESRRVMELIEEATELAQRGDPEQAREVLEEALELARELGNLLMEWQLEWLLELLSSSSS
B19: il10ra_site1_sap_18_mot_HHH_b1_04070_000000068_0001_43_55_H_._0803d6617dd33f2871c335afc9275591_0001_0001_0000100024_0000001_0_0001 (protein)
chain: SSSSSDEQERLLELMQQAFRLALRGDPEEAREVLEEALELAEELGDERAKRMIRDLLKSLSSSSS
B20: il10ra_site1_normal_mot_HHH_b1_08513_000000269_0001_42_56_H_._HHH_b1_07453_0001_0000300026_0000001_0 (protein)
chain: SSSSSSSEEEIEELLKEIERSTDPEELHKLLRKVAELASELNDEELYRRVLELSQEFINSSSSSS
B21: il10ra_site1_sap_12_mot_8756ee2cf497b5429c717dfc0c0bcfd6_0001_000000186_0001_1_13_H_._HHH_b2_01371_af2_0001_0000500020_0000001_1_0001 (protein)
chain: SSSSNTLEWSVRFALKHAEELLEEGDEEKAKILLEAILRHVRQAKNEELLEEIERLLEEVRSSSS
B22: il10ra_site1_normal_mot_HHH_b2_00984_000000042_0001_1_20_H_._HHH_b2_02613_af2_0001_0000700025_0000001_0 (protein)
chain: SSSSSTEEEIEELIKKAEEAAENGDPRKAFELLAEASRYALELGDAELLQEIWELIKKLNSSSSS
B23: il10ra_site1_normal_mot_HHH_b2_07144_000000289_0001_1_18_H_._HHH_b2_04284_0001_0000200013_0000001_1 (protein)
chain: SSSSSENHRAYELSREAAELLRQGNEEEAREVLEEVKEIAEEANNPILEFAARAIEKAVNSSSSS
B24: il10ra_site1_sap_19_mot_HHH_b2_01310_000000089_0001_41_55_H_._HHH_b2_02509_af2_0001_0000100001_0000001_0_0001_af2pred_0001 (protein)
chain: SSSSDEEYEEEVRELLEEAKHIEDPKERAYVLIRAYALAVKARDPELEELVKKVARELIGSSSSS
B25: il10ra_site1_sap_11_mot_8f2fda87c81871a3aab3e6ec2ca46b51_0001_000000224_0001_1_15_H_._8fcd63acc1b0ddff2aacf4df2caf1c72_0001_1_af2_0001_0000300020_0000001_0_0001 … (protein)
chain: SSSSSSEKKVEAEALIFFARYASNEEAARIALELAEEIAEELNDPELEELIEEVEKKLRSSSSSS
B26: il10ra_site1_normal_mot_8756ee2cf497b5429c717dfc0c0bcfd6_0001_000000186_0001_1_13_H_._HHH_b1_06988_0001_0000100013_0000001_1_af2pred_0001 (protein)
chain: SSSSSEEREELLKLSREVIELKQNGNPEEARELVEEAIRLAEELGNLNILAILRFLEEILSSSSS
B27: il10ra_site1_sap_20_mot_HHH_b2_00943_af2_000000149_0001_1_17_H_._HHH_b1_08116_af2_0001_0000300005_0000001_0_0001 (protein)
chain: SSSSSQEWQELAEEAKEVAEEVGDEMAEELIKAIKRLVEQGILDEEMASASLRLLIERLRSSSSS
B28: il10ra_site1_normal_mot_HHH_b2_02933_000000199_0001_1_19_H_._HHH_b2_00234_af2_0001_0000200006_0000001_0_af2pred_0001 (protein)
chain: SSSSSSSEAEEALKLLREALKIDDPEEFEEVIEEARRLAEEANNTILRFAIEFVAKEFNSSSSSS
B29: il10ra_site1_sap_16_mot_HHH_b2_05343_000000235_0001_19_35_H_._HHH_b1_02070_af2_0001_0000300019_0000002_1_0001 (protein)
chain: SSSSDEEKEELEELLEEIRRLLEEGNPEEASRLLIEVAELAAELGDEEALRKVRELIQEVFSSSS
B30: il10ra_site1_sap_31_mot_HHH_b2_04274_000000146_0001_1_19_H_._HHH_b2_07522_af2_0001_0000400034_0000001_0_0001_af2pred_0001 (protein)
chain: SSSSSREEEALERLLRAARELYEQGDPELARLALKIAARLAEALGNEELLEELRQALEELSSSSS
B31: il10ra_site1_normal_mot_HHH_b2_07784_af2_000000103_0001_19_36_H_._HHH_b2_07681_af2_0001_0000500032_0000001_0 (protein)
chain: SSSSDEEYEEVKKLIERIVELIRNGNPEEAQELLERLRELAEELNTPALEFVVRLLERAINSSSS
B32: il10ra_site1_normal_mot_HHH_b2_07145_000000158_0001_24_40_H_._HHH_b1_08095_0001_0000300042_0000001_0 (protein)
chain: SSSSEEAFELIRRLIEEVSELLREGNREEAEKVIEEAEEIAEKYNNQALRFSVEHLLRLVRSSSS
B33: il10ra_site1_sap_16_mot_HHH_b2_02497_000000220_0001_1_20_H_._HHH_b1_07197_0001_0000500045_0000001_0_0001 (protein)
chain: SSSSDEEEAEEVFERYREELEEVAKKDAQKAFEALEEAIKLLLELGDDEAAHRIARFFVRLSSSS
B34: il10ra_site1_sap_26_mot_HHH_b2_02053_af2_000000006_0001_3_19_H_._HHH_b1_08316_0001_0000600031_0000001_0_0001 (protein)
chain: SSSSSDEEEHEEVEELLEKAEKIEDPEEVMKLLLRALHIAIQINDPEALQAVWRVVHKLASSSSS
B35: il10ra_site1_normal_mot_HHH_b1_04514_000000156_0001_1_18_H_._HHH_b1_03241_0001_0000200016_0000001_0 (protein)
chain: SSSSYEEVKELIERIIQLAREGNPEEAEEVLRELERLAEELNNPAVRFVVRLLEEVIENTSSSSS
B36: il10ra_site1_normal_mot_HHH_b2_04013_af2_000000040_0001_22_39_H_._HHH_b2_07593_0001_0000500012_0000001_0 (protein)
chain: SSSSDAEEEVRRLLEQVRELLEEGDAEKAFRLLREAIEVAAQSRDPEAEKLVRELLEELFRSSSS
B37: il10ra_site1_sap_24_mot_2c1a291787c6f40772924d4e9068d803_0001_af2_000000187_0001_34_48_H_._HHH_b2_01792_0001_0000100012_0000001_0_0001_af2pred_0001 (protein)
chain: SSSSDERAVKFLIEAAKHLEELGNPELAERALRLALLAAKWANNPELEEEVQELLEELRGSSSSS

Target: il10ra, Q13651
Assay: yeast display titration

Apparent Kd, inactive:
B1 no binding seen, B2 no binding seen, B3 no binding seen, B4 no binding seen, B5 no binding seen, B6 no binding seen, B7 no binding seen, B8 no binding seen, B9 no binding seen, B10 no binding seen, B11 no binding seen, B12 no binding seen, B13 no binding seen, B14 no binding seen, B15 no binding seen, B16 no binding seen, B17 no binding seen, B18 no binding seen, B19 no binding seen, B20 no binding seen, B21 no binding seen, B22 no binding seen, B23 no binding seen, B24 no binding seen, B25 no binding seen, B26 no binding seen, B27 no binding seen, B28 no binding seen, B29 no binding seen, B30 no binding seen, B31 no binding seen, B32 no binding seen, B33 no binding seen, B34 no binding seen, B35 no binding seen, B36 no binding seen, B37 no binding seen
